Results are given in words; binding and its absence hold for the method and conditions named. In cells and extracts the contact can be indirect. For part of these data: A result given as binding can be weak or reduced; the word gives no strength. For part of these data: Sequences can lack the tags named with a protein.
Experiments:
FLAG-MATR3 = target: T1, FLAG-MATR3 (UniProt P43243); assay: co-IP; FLAG immunoprecipitation (anti-FLAG M2 affinity gel, elution with 3xFLAG peptide) from lysates of co-transfected cells; 1x RIPA buffer, 4 °C, 2 h; no RNase; western blot
T1 sequence: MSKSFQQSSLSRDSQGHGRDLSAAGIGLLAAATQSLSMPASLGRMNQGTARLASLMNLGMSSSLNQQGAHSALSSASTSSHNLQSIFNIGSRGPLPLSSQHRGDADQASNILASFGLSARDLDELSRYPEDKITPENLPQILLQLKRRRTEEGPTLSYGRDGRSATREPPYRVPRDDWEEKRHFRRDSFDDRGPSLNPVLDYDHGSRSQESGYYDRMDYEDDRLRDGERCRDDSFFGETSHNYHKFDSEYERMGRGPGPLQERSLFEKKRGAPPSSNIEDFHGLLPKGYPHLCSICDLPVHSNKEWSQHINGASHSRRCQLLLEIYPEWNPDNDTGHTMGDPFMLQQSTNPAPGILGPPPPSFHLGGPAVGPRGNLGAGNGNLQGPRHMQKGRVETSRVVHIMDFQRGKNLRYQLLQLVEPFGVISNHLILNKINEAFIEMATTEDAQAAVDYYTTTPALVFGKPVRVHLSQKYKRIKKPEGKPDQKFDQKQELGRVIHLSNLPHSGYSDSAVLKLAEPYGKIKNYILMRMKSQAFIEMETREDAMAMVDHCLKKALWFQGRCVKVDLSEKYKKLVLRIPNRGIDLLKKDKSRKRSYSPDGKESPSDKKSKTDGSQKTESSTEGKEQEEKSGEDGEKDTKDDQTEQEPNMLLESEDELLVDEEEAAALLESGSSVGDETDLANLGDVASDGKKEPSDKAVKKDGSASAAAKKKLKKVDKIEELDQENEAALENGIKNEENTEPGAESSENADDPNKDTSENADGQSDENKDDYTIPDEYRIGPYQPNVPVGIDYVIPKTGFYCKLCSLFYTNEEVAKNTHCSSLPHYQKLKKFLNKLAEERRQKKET

Chains of the proteins cited; added tags and fusions are not shown. Lines headed by an entry give the natural chain unless they say otherwise; changes in a name come on top.
UniProt Q13283: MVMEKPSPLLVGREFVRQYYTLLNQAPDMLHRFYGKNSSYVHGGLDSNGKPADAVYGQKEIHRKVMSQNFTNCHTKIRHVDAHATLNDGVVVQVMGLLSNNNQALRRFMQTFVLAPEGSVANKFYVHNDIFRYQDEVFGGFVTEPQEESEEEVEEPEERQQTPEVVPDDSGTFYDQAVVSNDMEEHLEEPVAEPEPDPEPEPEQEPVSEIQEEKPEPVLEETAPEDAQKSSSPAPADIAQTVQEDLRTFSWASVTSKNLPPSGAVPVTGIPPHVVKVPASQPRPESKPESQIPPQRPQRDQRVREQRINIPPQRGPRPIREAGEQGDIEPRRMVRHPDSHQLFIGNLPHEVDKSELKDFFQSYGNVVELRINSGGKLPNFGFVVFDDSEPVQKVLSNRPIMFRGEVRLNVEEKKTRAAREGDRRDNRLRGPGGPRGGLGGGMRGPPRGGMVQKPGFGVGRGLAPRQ
UniProt P00441: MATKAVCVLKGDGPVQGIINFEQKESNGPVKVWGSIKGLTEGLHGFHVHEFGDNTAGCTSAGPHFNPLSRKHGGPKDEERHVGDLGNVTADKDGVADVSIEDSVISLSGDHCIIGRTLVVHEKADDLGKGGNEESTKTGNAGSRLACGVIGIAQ

[1] = target: FLAG-G3BP1 (human, wild type) (human) (UniProt Q13283); assay: co-IP; FLAG immunoprecipitation from lysates of co-transfected 293T cells with RNase Cocktail added to the immunoprecipitation mixture at 1:100; 1x RIPA buffer, 4 °C, 2 h
[2] = target: FLAG-G3BP1 (human, wild type) (human) (UniProt Q13283); assay: co-IP; FLAG immunoprecipitation (anti-FLAG M2 affinity gel, elution with 3xFLAG peptide) from lysates of co-transfected cells; 1x RIPA buffer, 4 °C, 2 h; no RNase; western blot

binding (FLAG-MATR3) | binding [1] | binding [2] | Substance
no binding |  |  | A4V mutant SOD1-3xHA (human)
 | binds | binds | Mutant SOD1 of the RNase experiment (from UniProt P00441)
